Assay results reported in the supplement of paper PMC7661543.
Differences between knockout arms are mostly noise.

Tested on: ZR-75-1
Assay: relative cell number vs DMSO control (72 h) (% of DMSO); higher = less growth inhibition (more cells)
Description: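 QMAP-Seq: a pool of 5 breast cancer cell lines (ZR-75-1, SKBR3, HCC-38, MDA-MB-231, BT-20), each carrying 12 doxycycline-inducible Cas9 sgRNA perturbations (11 knockouts plus non-targeting sgNT), was treated with compounds for 72 h at four 10-fold doses (10 nM-10 uM or 1 nM-1 uM range). Barcodes were amplified and sequenced, and cell number was interpolated from 293T spike-in standard curves. The result is expressed as % of the median of DMSO wells. Two biological replicates.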

CCOc1ccccc1-n1c(C(C)N2CCN(C(=O)COc3ccc(Cl)cc3)CC2)nc2ccccc2c1=O (stereo not drawn) [Erastin]
Settings	relative cell number
sgRNA knockout: sgATF3, 10 nM	99.2
sgRNA knockout: sgATF3, 100 nM	113
sgRNA knockout: sgATF3, 1000 nM	114
sgRNA knockout: sgATF3, 10000 nM	62.3
sgRNA knockout: sgATF4, 10 nM	92.1
sgRNA knockout: sgATF4, 100 nM	69.5
sgRNA knockout: sgATF4, 1000 nM	124
sgRNA knockout: sgATF4, 10000 nM	42.9
sgRNA knockout: sgATF6, 10 nM	118.7
sgRNA knockout: sgATF6, 100 nM	84.6
sgRNA knockout: sgATF6, 1000 nM	110
sgRNA knockout: sgATF6, 10000 nM	68.3
sgRNA knockout: sgATG7, 10 nM	83.9
sgRNA knockout: sgATG7, 100 nM	91.1
sgRNA knockout: sgATG7, 1000 nM	87.6
sgRNA knockout: sgATG7, 10000 nM	65.6
sgRNA knockout: sgERN1, 10 nM	116
sgRNA knockout: sgERN1, 100 nM	109
sgRNA knockout: sgERN1, 1000 nM	97.4
sgRNA knockout: sgERN1, 10000 nM	59.9
sgRNA knockout: sgHSF2, 10 nM	82.8
sgRNA knockout: sgHSF2, 100 nM	105
sgRNA knockout: sgHSF2, 1000 nM	86.3
sgRNA knockout: sgHSF2, 10000 nM	76.4
sgRNA knockout: sgNFE2L2, 10 nM	112
sgRNA knockout: sgNFE2L2, 100 nM	104
sgRNA knockout: sgNFE2L2, 1000 nM	104
sgRNA knockout: sgNFE2L2, 10000 nM	75.6
sgRNA knockout: sgSLC35F2, 10 nM	102
sgRNA knockout: sgSLC35F2, 100 nM	86.7
sgRNA knockout: sgSLC35F2, 1000 nM	55.1
sgRNA knockout: sgSLC35F2, 10000 nM	95.2
sgRNA knockout: sgXBP1, 10 nM	126
sgRNA knockout: sgXBP1, 100 nM	94.8
sgRNA knockout: sgXBP1, 1000 nM	101
sgRNA knockout: sgXBP1, 10000 nM	61.48

COC(=O)Nc1nc2cc(C(=O)c3ccccc3)ccc2[nH]1 [Mebendazole]
Settings	relative cell number
sgRNA knockout: sgATF3, 10 nM	107
sgRNA knockout: sgATF3, 100 nM	62.9
sgRNA knockout: sgATF3, 1000 nM	54.3
sgRNA knockout: sgATF3, 10000 nM	16.1
sgRNA knockout: sgATF4, 10 nM	114
sgRNA knockout: sgATF4, 100 nM	49.7
sgRNA knockout: sgATF4, 1000 nM	34
sgRNA knockout: sgATF4, 10000 nM	23.9
sgRNA knockout: sgATF6, 10 nM	82.6
sgRNA knockout: sgATF6, 100 nM	62.9
sgRNA knockout: sgATF6, 1000 nM	39.1
sgRNA knockout: sgATF6, 10000 nM	13.1
sgRNA knockout: sgATG7, 10 nM	111
sgRNA knockout: sgATG7, 100 nM	72.4
sgRNA knockout: sgATG7, 1000 nM	34.2
sgRNA knockout: sgATG7, 10000 nM	17
sgRNA knockout: sgERN1, 10 nM	73.9
sgRNA knockout: sgERN1, 100 nM	64.6
sgRNA knockout: sgERN1, 1000 nM	37.2
sgRNA knockout: sgERN1, 10000 nM	23.6
sgRNA knockout: sgHSF2, 10 nM	106
sgRNA knockout: sgHSF2, 100 nM	72.14
sgRNA knockout: sgHSF2, 1000 nM	30.1
sgRNA knockout: sgHSF2, 10000 nM	15.5
sgRNA knockout: sgNFE2L2, 10 nM	141
sgRNA knockout: sgNFE2L2, 100 nM	58.1
sgRNA knockout: sgNFE2L2, 1000 nM	35.4
sgRNA knockout: sgNFE2L2, 10000 nM	15.85
sgRNA knockout: sgSLC35F2, 10 nM	63.669
sgRNA knockout: sgSLC35F2, 100 nM	84.85
sgRNA knockout: sgSLC35F2, 1000 nM	34.3
sgRNA knockout: sgSLC35F2, 10000 nM	11.5
sgRNA knockout: sgXBP1, 10 nM	112
sgRNA knockout: sgXBP1, 100 nM	67.4
sgRNA knockout: sgXBP1, 1000 nM	36.84
sgRNA knockout: sgXBP1, 10000 nM	18.6

CC(C)[C@]12O[C@H]1[C@@H]1O[C@]13[C@]1(O[C@H]1C[C@H]1C4=C(CC[C@@]13C)C(=O)OC4)[C@@H]2O [Triptolide]
Settings	relative cell number
sgRNA knockout: sgATF3, 1 nM	81.2
sgRNA knockout: sgATF3, 10 nM	64.8
sgRNA knockout: sgATF3, 100 nM	12.2
sgRNA knockout: sgATF3, 1000 nM	17.7
sgRNA knockout: sgATF4, 1 nM	119
sgRNA knockout: sgATF4, 10 nM	68.6
sgRNA knockout: sgATF4, 100 nM	11.8
sgRNA knockout: sgATF4, 1000 nM	13.2
sgRNA knockout: sgATF6, 1 nM	77
sgRNA knockout: sgATF6, 10 nM	50.5
sgRNA knockout: sgATF6, 100 nM	16.1
sgRNA knockout: sgATF6, 1000 nM	10.8
sgRNA knockout: sgATG7, 1 nM	93.5
sgRNA knockout: sgATG7, 10 nM	53.1
sgRNA knockout: sgATG7, 100 nM	8.99
sgRNA knockout: sgATG7, 1000 nM	8.96
sgRNA knockout: sgERN1, 1 nM	89.11
sgRNA knockout: sgERN1, 10 nM	57.1
sgRNA knockout: sgERN1, 100 nM	12.5
sgRNA knockout: sgERN1, 1000 nM	15
sgRNA knockout: sgHSF2, 1 nM	86.7
sgRNA knockout: sgHSF2, 10 nM	67.1
sgRNA knockout: sgHSF2, 100 nM	8.65
sgRNA knockout: sgHSF2, 1000 nM	12.2
sgRNA knockout: sgNFE2L2, 1 nM	91.6
sgRNA knockout: sgNFE2L2, 10 nM	69.6
sgRNA knockout: sgNFE2L2, 100 nM	8.41
sgRNA knockout: sgNFE2L2, 1000 nM	9.17
sgRNA knockout: sgSLC35F2, 1 nM	73.3
sgRNA knockout: sgSLC35F2, 10 nM	50.9
sgRNA knockout: sgSLC35F2, 100 nM	13.2
sgRNA knockout: sgSLC35F2, 1000 nM	7.62
sgRNA knockout: sgXBP1, 1 nM	90.2
sgRNA knockout: sgXBP1, 10 nM	56.8
sgRNA knockout: sgXBP1, 100 nM	8.4
sgRNA knockout: sgXBP1, 1000 nM	9.39
